Chains of the proteins cited; added tags and fusions are not shown.
UniProt P47756: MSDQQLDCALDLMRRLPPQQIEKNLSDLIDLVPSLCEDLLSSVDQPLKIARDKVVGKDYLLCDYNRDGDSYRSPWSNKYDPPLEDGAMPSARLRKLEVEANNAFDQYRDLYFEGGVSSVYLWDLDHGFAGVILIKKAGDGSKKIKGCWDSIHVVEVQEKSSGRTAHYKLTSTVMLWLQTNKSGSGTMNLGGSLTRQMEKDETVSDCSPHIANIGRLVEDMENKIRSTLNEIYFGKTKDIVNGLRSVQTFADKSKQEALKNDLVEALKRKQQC
UniProt Q99426: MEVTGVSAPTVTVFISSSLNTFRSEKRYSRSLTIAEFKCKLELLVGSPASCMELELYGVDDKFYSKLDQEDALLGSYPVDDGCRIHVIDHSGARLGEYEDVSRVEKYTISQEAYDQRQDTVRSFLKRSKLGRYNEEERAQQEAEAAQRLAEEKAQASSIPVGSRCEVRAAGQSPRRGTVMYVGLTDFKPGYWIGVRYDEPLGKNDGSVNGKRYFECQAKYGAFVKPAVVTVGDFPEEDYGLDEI

Results are given in words; binding and its absence hold for the method and conditions named. In cells and extracts the contact can be indirect. These calls come from enrichment with a bait or labelling near it, and not all partners need be listed.
These substances were tested against CRIPT (cysteine-rich interactor of PDZ-domain protein), wild type, in lysates of mitotic HeLa cells (human) (UniProt Q9P021) (assay: affinity purification with mass spectrometry).
“APRC1B (printed ARPC1B in the methods), endogenous, mitotic HeLa cells (from UniProt O15143 1-372)” was tested, and the binding was “binds”.
For “CAPZB, endogenous, mitotic HeLa cells (from UniProt P47756 1-272)”, the binding was “binds”.
With “TBCB, endogenous, mitotic HeLa cells (from UniProt Q99426 1-244)” the binding was “binds”.

— publication doi:10.1101/869123
